The text below walks through data of PubChem BioAssay AID330 (DTP/NCI, 2004).

The list does not hold the whole screen: it gathers tests that were run many times, whatever their T/C, doses with no T/C, and many T/C values between a quarter and a half above the control. Further doses and runs are listed elsewhere. T/C: endpoint of the treated group in % of that of the vehicle group. Some doses have a count of surviving animals in place of a T/C: the source files T/C as zero there, which appears to mark a toxic dose or a test without result, not a measured value. Some survivor counts are full or nearly so, which does not show that the dose was tolerated: survival well below the control is almost never listed, so the zero probably covers shortened survival too. Counts of survivors are from the toxicity check (mostly the fifth day) where no day follows; animals may have died later. Schedule codes are those of the source, read here as Q, the interval in days (D) or hours (H), X, the number of doses. For survival time, the PubChem record calls one and a half times the control and up active, and a quarter to a half above the control has no call in these data; cut-offs in other NCI protocols can differ. Some T/C values are followed by the survivors on the day toxicity was checked, most often the fifth; where none is given, no animal had died by that day. Some entries were tested several times; the values are given in rising order.

The test system of the assay is P388 leukemia ip, CD2F1 mice, survival T/C. Nature of the assay: NCI In Vivo Anticancer Drug Screen. Data for tumor model P388 Leukemia (intraperitoneal) in CD2F1 (CDF1) mice. As to conditions: T/C endpoint: median survival time, higher T/C = longer survival.
[1] abbreviates: dose: 100.0 mg/kg/injection, schedule: Q01DX009 (ip), vehicle: saline with Tween-80.
The mark [2] stands for this setting: dose: 200.0 mg/kg/injection, schedule: Q01DX009 (ip), vehicle: saline with Tween-80.

With `O=NNc1ccc([N+](=O)[O-])cc1`, the T/C was 125 and 139 % of control [5 of 6 alive] (dose: 12.5 mg/kg/injection, schedule: Q01DX009 (ip), vehicle: water); 130 % of control (dose: 25.0 mg/kg/injection, schedule: Q01DX009 (ip), vehicle: water); 147 % of control (dose: 50.0 mg/kg/injection, schedule: Q01DX009 (ip), vehicle: water). Moreover, the survivor count is, setting by setting: (dose: 100.0 mg/kg/injection, schedule: Q01DX009 (ip), vehicle: water) 2 of 6; (dose: 200.0 mg/kg/injection, schedule: Q01DX009 (ip), vehicle: water) 0 of 6.
With `CC1(CCN2CCC(O)(c3ccc(Cl)cc3)CC2)Oc2ccccc2O1`, the survivor count is, setting by setting: (dose: 100.0 mg/kg/injection, schedule: Q01DX001 (ip), vehicle: saline with Tween-80) 0 of 6; (dose: 200.0 mg/kg/injection, schedule: Q01DX001 (ip), vehicle: saline with Tween-80) 0 of 6; (dose: 400.0 mg/kg/injection, schedule: Q01DX001 (ip), vehicle: saline with Tween-80) 0 of 6.
In the case of `CNc1ncnc2[nH]ncc12`, the survivor count is reported as 2 of 6 under setting [1]; 3 of 6 (dose: 100.0 mg/kg/injection, schedule: Q04DX003 (ip), vehicle: saline sonified); 0 of 6 under setting [2]; 1 of 6 (dose: 400.0 mg/kg/injection, schedule: Q04DX003 (ip), vehicle: saline sonified).
Regarding `Cc1ccc(C2(C)OC(CCl)CS2)c(C)c1` (configuration not stated), under setting [1], the T/C was 129 % of control.
As to `CCN(CC)CCCOC(=O)N(Cc1ccc(Cl)cc1)C1CC1`, the survivor count (dose: 200.0 mg/kg/injection, schedule: Q01DX009 (ip), vehicle: saline + Tween-80 + alcohol) is on record as 0 of 6.
For `Cc1ccc2nc(-c3ccc(CSC(=N)N)cc3)oc(=O)c2c1`, the survivor count was 6 of 6 (dose: 6.25 mg/kg/injection, schedule: Q01DX009 (ip), vehicle: saline with Tween-80); 6 of 6 (dose: 12.5 mg/kg/injection, schedule: Q01DX009 (ip), vehicle: saline with Tween-80); 6 of 6 (dose: 25.0 mg/kg/injection, schedule: Q01DX009 (ip), vehicle: saline with Tween-80); 0 of 6 under setting [2].
Turning to `O=NN(CCCl)C(=O)Nc1c[nH]c(=O)[nH]c1=O`, the T/C (dose: 1.5 mg/kg/injection, schedule: Q04DX003 (ip), vehicle: saline with Tween-80) is 145 % of control. In addition, the survivor count is recorded as 6 of 6 (dose: 25.0 mg/kg/injection, schedule: Q04DX003 (ip), vehicle: saline with Tween-80); 5 of 6 (dose: 44.0 mg/kg/injection, schedule: Q01DX009 (ip), vehicle: saline with Tween-80); 4 of 6 (dose: 50.0 mg/kg/injection, schedule: Q04DX003 (ip), vehicle: saline with Tween-80); 6 of 6 (dose: 67.0 mg/kg/injection, schedule: Q01DX009 (ip), vehicle: saline with Tween-80); 5 of 6 under setting [1]; 3 of 6 (dose: 100.0 mg/kg/injection, schedule: Q04DX003 (ip), vehicle: saline with Tween-80). The survivor count reads like this: (dose: 200.0 mg/kg/injection, schedule: Q04DX003 (ip), vehicle: saline with Tween-80) 0 of 6; (dose: 400.0 mg/kg/injection, schedule: Q04DX003 (ip), vehicle: saline with Tween-80) 0 of 6.
Take `C/C(CCl)=N\NC1=NC(C)(CCl)P(=O)(NNc2ncccn2)S1` (configuration not stated): the T/C (dose: 15.0 mg/kg/injection, schedule: Q01DX005 (ip), vehicle: saline) is 129 % of control. Moreover, the survivor count reads like this: (dose: 120.0 mg/kg/injection, schedule: Q01DX005 (ip), vehicle: saline) 3 of 6; (dose: 240.0 mg/kg/injection, schedule: Q01DX005 (ip), vehicle: saline) 0 of 6.
Regarding `Oc1c(Cl)cc(Cl)cc1/C=N\NC(=S)Nc1ccccc1`, where the note is “dose: 400.0 mg/kg/injection, schedule: Q04DX002 (ip), vehicle: Klucel (hydroxypropylcellulose) (HPC)”, the survivor count was 4 of 6.
`COc1ccc(C(Cl)(c2ccccc2)c2ccc(C(C)=O)cc2)cc1` (configuration not stated): the survivor count is 6 of 6 (dose: 120.0 mg/kg/injection, schedule: Q01DX005 (ip), vehicle: saline with Tween-80) and 6 of 6 (dose: 240.0 mg/kg/injection, schedule: Q01DX005 (ip), vehicle: saline with Tween-80).
Turning to `O=C(O)C(=O)O.O=N[O-].[Co+3].[NH-]CC[N-]CC[NH-]`, under setting [1], the survivor count was 4 of 6.
Turning to `Nc1nc(N)c2nnn(C3OC(CO)C(O)C3O)c2n1` (configuration not stated), the T/C was 125 % of control (dose: 6.0 mg/kg/injection, schedule: Q01DX009 (ip), vehicle: saline) and 132 % of control (dose: 100.0 mg/kg/injection, schedule: Q01DX009 (ip), vehicle: saline). Also, the survivor count (dose: 200.0 mg/kg/injection, schedule: Q01DX009 (ip), vehicle: saline) is 2 of 6.
